Measurements as given in US20160039934A1 (AFFIRMED, published 2016).
These are yes or no findings as the source states them, for the method shown. Some entries that bind do so weakly or less than the wild type.

The chains behind the UniProt entries cited, without tags or fusion partners. Residues count along the entry.
UniProt Q95LI5, residues 22-198: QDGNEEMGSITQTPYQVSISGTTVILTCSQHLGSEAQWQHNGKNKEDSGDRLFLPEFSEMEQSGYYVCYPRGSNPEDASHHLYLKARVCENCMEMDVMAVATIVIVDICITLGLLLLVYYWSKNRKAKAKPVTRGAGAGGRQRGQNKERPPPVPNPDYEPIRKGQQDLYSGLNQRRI
UniProt P07766, residues 23-207: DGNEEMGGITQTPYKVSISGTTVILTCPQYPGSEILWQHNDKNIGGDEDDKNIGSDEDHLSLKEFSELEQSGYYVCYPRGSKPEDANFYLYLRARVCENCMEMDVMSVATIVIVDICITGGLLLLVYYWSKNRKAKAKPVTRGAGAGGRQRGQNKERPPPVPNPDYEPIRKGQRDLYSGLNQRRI

What was measured:
cynomolgus CD3 [1] = biological target: T1, cynomolgus CD3 (cynomolgus, UniProt Q95LI5 22-198); experiment: flow cytometry on HSC-F cells
T1 construct: whole, on cells; CD3 is a multi-chain complex; also called CD3 on cynomolgus CD3+ HSC-F cells; cynomolgus CD3-expressing cell line (HSC-F)

human CD3 = biological target: T2, human CD3 (human, UniProt P07766 23-207); experiment: flow cytometry on Jurkat cells
T2 construct: whole, on cells; CD3 is a multi-chain complex; also called CD3 on human CD3+ Jurkat cells; CD3+ human T cell line (Jurkat)

cynomolgus CD3 [2] = biological target: T1, cynomolgus CD3; experiment: summary of the flow cytometry results

Measured: binding

B1: TandAb E (var_z) (SEQ ID NO:12) (bispecific antibody)
chain: DIQMTQSPSSLSASVGDRVTITCRSSTGAVTTSNYANWVQQKPGKAPKGLIGGTNKRAPGVPSRFSGSLIGDKATLTISSLQPEDFATYYCALWYSNLWVFGQGTKVEIKGGSGGSEVQLVQSGAEVKKPGESLKISCKGSGYSFTSYWIGWVRQMPGKGLEWMGIIYPGDSDTRYSPSFQGQVTISADKSISTAYLQWSSLKASDTAMYYCARLGSSWTNDAFDIWGQGTMVTVSSGGSGGSSYELTQPPSVSVSPGQTARITCSGDALPKQYAYWYQQKPGQAPVLVIYKDSERPSGIPERFSGSSSGTTVTLTISGVQAEDEADYYCQSADSSGTPLIVFGTGTKLTVLGGSGGSEVQLVESGGGLVQPGGSLRLSCAASGFTFSTYAMNWVRQAPGKGLEWVGRIRSKYNNYATYYADSVKDRFTISRDDSKNSLYLQMNSLKTEDTAVYYCARHGNFGNSYVSHFAYWGQGTLVTVSSAAAGSHHHHHH
notes: Homodimeric tandem diabody; Detected by anti-His mAb
binds: all assays above
